We go through 4 molecules from publication PMC3718797.

Protein sequences, listed by entry. Tags and fused reporters are not part of them. Lines headed by an entry give the natural chain unless they say otherwise; changes in a name come on top. Chains listed by the source or under a name are the forms on record and can include a tag or linker.
UniProt Q9V460: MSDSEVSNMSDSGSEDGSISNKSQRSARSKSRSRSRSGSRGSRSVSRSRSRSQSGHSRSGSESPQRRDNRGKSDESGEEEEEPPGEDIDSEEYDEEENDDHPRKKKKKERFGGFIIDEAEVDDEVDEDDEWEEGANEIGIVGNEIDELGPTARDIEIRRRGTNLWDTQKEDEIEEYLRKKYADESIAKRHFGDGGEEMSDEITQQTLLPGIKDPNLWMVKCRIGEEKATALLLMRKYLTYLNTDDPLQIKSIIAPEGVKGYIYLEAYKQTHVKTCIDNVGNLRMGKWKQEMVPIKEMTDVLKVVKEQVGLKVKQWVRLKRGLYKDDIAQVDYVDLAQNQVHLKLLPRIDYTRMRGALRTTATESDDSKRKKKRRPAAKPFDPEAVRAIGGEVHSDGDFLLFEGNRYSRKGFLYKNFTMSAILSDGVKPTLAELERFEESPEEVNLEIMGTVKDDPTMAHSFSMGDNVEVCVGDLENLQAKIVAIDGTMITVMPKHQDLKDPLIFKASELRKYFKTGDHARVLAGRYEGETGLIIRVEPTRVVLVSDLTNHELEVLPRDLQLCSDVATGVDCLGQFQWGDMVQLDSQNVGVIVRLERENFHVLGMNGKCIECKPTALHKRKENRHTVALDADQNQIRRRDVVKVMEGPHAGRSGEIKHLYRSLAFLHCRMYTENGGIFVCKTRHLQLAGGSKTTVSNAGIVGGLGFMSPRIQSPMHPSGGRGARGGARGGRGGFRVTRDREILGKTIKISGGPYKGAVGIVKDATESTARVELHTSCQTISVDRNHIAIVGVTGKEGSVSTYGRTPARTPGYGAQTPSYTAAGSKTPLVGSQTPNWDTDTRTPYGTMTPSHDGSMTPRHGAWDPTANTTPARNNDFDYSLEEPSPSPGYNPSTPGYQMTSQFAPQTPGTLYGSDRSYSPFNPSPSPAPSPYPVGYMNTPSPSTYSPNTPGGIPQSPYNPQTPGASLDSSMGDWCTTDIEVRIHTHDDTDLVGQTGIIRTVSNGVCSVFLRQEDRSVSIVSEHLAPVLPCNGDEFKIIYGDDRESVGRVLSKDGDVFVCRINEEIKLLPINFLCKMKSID
Flag-tagged W049 variant of Spt5 (Q9V460, form named): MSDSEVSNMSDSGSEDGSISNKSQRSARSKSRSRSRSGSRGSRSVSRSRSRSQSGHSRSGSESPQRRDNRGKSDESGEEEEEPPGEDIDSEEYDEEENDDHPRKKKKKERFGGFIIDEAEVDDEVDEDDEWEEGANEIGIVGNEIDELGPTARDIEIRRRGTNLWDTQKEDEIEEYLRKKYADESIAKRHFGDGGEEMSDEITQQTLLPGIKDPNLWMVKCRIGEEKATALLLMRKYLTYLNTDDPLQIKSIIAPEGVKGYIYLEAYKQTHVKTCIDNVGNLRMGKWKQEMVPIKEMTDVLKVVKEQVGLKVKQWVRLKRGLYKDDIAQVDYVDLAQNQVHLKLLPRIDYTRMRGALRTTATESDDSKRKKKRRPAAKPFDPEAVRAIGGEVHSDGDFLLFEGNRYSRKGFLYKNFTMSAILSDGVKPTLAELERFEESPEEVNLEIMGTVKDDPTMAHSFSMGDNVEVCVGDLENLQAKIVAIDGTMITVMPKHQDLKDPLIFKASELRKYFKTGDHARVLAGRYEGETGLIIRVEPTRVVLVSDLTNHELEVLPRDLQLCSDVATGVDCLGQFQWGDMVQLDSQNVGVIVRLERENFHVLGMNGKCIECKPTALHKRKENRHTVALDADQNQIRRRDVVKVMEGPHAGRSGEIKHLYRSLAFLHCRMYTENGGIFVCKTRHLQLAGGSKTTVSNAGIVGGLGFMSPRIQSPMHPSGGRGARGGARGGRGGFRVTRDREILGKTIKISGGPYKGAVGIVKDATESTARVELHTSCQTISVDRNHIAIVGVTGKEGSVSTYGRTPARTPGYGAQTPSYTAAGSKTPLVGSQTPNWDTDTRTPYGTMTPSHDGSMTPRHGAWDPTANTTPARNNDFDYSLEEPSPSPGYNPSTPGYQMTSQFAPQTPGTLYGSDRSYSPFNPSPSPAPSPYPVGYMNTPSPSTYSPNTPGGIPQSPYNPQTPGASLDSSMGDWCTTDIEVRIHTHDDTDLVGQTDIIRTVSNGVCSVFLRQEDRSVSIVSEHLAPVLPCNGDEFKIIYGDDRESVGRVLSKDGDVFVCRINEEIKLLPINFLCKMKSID

Test [1] concerns the target Full length W049 protein (Spt5 G994D), yeast 2-hybrid construct (Drosophila) (UniProt Q9V460). Description: two-hybrid; data not shown; W049 (G994D) DD and full length W049 protein tested with Pho.
Test [2] has as its target Full length Spt5 in pGBKT7 (Drosophila) (UniProt Q9V460). Description: two-hybrid; direct test; Spt5 or its DD in pGBKT7, full length Pho in pGADT7; empty pGBKT7 as control.
For test [3], the target named is Flag-tagged Spt5 (Drosophila) (UniProt Q9V460). Description: co-IP; Flag-tagged Spt5 (or its W049 variant) and Myc-tagged proteins expressed in transfected S2R+ cells; Western blots with anti-Myc and anti-FLAG M2. A general note: In western blotting, separated proteins are transferred to a membrane and probed.
In test [4] the target is Flag-tagged W049 variant of Spt5 (Drosophila) (UniProt Q9V460). Described as above.
In test [5] the target is Flag-tagged Spt5 (Drosophila) (UniProt Q9V460). Described as above. This is another data set of the same source.

Like-named read-outs stand apart in the source and are kept apart here. These are yes or no findings as the source states them, for the method shown. For part of these data: Binding seen in cells or lysates may run through a third protein. Some results given as binding are weak or reduced against the parent protein; the word gives no strength. For part of these data: Where a sequence is shown, tags or fusion partners need not be part of it.

On to “Full length Pleiohomeotic (Pho) in pGADT7 (from UniProt Q8ST83 1-520)”, for which the binding entry in test [1] and in test [2] was “binds” in each case.

In the case of “Myc-C-Pho (351-520) (from UniProt Q8ST83 351-520) (domain or fragment)”, the binding entry in test [3] was “no binding”.

As for Myc-Pho (from UniProt Q8ST83 1-520), the binding result in test [3] and in test [4] was “binds” each time.

B1: Myc-N-Pho (amino acids 1-351) (domain or fragment, UniProt Q8ST83 1-351)
chain: MAYERFGIILQSEQYDEDIGNTKVNQKMNEGNHYDLHRKNAFDRIIHSESKKGDNVINYNIHENDKIKAADNIFSSKLKMNPNMSYEMNINCFKNIGYGENQETSKVLTNSLSNNDINTEESGVVDKNSPFLTLGTTILNSNGKSRRWEQKLVHIKTMEGEFSVTMWASGISDDEYSGSDQIVGASDLLKGKEEFGIDGFTSQQNKEYQKMESKFTNAQTLEMPHPISSVQIMDHLIKERGNLSQENNISERILSKTTLSFEEPILLPDSSSIELVNETAAMTINNHRTLSNHTGNTGDLHALPSSVPFRIGLHEGQVNDCLSTISQSTHQDNTDSTGCGEMNLSEVTVSY
As to B1, the binding entry in test [5] is “binds”.
